Assay results reported in PMC11077861.

Protein sequences, listed by entry. Tags and fused reporters are not part of them. Residues count along the entry.
UniProt P10809, residues 27-573: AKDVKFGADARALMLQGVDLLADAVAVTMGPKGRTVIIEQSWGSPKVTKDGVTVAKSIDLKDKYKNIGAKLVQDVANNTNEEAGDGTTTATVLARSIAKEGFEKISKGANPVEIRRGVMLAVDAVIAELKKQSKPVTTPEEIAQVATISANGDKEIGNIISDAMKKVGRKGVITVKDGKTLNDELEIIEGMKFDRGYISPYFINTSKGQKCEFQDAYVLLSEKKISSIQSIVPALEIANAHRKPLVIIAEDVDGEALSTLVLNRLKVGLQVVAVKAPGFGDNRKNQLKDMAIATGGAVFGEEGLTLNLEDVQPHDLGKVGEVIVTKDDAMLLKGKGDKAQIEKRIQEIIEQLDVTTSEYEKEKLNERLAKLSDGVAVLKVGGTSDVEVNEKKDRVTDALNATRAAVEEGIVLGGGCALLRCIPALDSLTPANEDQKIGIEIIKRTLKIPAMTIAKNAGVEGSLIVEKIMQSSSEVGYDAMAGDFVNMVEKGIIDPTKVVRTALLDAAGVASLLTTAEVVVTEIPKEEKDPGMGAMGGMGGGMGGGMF
UniProt Q15149: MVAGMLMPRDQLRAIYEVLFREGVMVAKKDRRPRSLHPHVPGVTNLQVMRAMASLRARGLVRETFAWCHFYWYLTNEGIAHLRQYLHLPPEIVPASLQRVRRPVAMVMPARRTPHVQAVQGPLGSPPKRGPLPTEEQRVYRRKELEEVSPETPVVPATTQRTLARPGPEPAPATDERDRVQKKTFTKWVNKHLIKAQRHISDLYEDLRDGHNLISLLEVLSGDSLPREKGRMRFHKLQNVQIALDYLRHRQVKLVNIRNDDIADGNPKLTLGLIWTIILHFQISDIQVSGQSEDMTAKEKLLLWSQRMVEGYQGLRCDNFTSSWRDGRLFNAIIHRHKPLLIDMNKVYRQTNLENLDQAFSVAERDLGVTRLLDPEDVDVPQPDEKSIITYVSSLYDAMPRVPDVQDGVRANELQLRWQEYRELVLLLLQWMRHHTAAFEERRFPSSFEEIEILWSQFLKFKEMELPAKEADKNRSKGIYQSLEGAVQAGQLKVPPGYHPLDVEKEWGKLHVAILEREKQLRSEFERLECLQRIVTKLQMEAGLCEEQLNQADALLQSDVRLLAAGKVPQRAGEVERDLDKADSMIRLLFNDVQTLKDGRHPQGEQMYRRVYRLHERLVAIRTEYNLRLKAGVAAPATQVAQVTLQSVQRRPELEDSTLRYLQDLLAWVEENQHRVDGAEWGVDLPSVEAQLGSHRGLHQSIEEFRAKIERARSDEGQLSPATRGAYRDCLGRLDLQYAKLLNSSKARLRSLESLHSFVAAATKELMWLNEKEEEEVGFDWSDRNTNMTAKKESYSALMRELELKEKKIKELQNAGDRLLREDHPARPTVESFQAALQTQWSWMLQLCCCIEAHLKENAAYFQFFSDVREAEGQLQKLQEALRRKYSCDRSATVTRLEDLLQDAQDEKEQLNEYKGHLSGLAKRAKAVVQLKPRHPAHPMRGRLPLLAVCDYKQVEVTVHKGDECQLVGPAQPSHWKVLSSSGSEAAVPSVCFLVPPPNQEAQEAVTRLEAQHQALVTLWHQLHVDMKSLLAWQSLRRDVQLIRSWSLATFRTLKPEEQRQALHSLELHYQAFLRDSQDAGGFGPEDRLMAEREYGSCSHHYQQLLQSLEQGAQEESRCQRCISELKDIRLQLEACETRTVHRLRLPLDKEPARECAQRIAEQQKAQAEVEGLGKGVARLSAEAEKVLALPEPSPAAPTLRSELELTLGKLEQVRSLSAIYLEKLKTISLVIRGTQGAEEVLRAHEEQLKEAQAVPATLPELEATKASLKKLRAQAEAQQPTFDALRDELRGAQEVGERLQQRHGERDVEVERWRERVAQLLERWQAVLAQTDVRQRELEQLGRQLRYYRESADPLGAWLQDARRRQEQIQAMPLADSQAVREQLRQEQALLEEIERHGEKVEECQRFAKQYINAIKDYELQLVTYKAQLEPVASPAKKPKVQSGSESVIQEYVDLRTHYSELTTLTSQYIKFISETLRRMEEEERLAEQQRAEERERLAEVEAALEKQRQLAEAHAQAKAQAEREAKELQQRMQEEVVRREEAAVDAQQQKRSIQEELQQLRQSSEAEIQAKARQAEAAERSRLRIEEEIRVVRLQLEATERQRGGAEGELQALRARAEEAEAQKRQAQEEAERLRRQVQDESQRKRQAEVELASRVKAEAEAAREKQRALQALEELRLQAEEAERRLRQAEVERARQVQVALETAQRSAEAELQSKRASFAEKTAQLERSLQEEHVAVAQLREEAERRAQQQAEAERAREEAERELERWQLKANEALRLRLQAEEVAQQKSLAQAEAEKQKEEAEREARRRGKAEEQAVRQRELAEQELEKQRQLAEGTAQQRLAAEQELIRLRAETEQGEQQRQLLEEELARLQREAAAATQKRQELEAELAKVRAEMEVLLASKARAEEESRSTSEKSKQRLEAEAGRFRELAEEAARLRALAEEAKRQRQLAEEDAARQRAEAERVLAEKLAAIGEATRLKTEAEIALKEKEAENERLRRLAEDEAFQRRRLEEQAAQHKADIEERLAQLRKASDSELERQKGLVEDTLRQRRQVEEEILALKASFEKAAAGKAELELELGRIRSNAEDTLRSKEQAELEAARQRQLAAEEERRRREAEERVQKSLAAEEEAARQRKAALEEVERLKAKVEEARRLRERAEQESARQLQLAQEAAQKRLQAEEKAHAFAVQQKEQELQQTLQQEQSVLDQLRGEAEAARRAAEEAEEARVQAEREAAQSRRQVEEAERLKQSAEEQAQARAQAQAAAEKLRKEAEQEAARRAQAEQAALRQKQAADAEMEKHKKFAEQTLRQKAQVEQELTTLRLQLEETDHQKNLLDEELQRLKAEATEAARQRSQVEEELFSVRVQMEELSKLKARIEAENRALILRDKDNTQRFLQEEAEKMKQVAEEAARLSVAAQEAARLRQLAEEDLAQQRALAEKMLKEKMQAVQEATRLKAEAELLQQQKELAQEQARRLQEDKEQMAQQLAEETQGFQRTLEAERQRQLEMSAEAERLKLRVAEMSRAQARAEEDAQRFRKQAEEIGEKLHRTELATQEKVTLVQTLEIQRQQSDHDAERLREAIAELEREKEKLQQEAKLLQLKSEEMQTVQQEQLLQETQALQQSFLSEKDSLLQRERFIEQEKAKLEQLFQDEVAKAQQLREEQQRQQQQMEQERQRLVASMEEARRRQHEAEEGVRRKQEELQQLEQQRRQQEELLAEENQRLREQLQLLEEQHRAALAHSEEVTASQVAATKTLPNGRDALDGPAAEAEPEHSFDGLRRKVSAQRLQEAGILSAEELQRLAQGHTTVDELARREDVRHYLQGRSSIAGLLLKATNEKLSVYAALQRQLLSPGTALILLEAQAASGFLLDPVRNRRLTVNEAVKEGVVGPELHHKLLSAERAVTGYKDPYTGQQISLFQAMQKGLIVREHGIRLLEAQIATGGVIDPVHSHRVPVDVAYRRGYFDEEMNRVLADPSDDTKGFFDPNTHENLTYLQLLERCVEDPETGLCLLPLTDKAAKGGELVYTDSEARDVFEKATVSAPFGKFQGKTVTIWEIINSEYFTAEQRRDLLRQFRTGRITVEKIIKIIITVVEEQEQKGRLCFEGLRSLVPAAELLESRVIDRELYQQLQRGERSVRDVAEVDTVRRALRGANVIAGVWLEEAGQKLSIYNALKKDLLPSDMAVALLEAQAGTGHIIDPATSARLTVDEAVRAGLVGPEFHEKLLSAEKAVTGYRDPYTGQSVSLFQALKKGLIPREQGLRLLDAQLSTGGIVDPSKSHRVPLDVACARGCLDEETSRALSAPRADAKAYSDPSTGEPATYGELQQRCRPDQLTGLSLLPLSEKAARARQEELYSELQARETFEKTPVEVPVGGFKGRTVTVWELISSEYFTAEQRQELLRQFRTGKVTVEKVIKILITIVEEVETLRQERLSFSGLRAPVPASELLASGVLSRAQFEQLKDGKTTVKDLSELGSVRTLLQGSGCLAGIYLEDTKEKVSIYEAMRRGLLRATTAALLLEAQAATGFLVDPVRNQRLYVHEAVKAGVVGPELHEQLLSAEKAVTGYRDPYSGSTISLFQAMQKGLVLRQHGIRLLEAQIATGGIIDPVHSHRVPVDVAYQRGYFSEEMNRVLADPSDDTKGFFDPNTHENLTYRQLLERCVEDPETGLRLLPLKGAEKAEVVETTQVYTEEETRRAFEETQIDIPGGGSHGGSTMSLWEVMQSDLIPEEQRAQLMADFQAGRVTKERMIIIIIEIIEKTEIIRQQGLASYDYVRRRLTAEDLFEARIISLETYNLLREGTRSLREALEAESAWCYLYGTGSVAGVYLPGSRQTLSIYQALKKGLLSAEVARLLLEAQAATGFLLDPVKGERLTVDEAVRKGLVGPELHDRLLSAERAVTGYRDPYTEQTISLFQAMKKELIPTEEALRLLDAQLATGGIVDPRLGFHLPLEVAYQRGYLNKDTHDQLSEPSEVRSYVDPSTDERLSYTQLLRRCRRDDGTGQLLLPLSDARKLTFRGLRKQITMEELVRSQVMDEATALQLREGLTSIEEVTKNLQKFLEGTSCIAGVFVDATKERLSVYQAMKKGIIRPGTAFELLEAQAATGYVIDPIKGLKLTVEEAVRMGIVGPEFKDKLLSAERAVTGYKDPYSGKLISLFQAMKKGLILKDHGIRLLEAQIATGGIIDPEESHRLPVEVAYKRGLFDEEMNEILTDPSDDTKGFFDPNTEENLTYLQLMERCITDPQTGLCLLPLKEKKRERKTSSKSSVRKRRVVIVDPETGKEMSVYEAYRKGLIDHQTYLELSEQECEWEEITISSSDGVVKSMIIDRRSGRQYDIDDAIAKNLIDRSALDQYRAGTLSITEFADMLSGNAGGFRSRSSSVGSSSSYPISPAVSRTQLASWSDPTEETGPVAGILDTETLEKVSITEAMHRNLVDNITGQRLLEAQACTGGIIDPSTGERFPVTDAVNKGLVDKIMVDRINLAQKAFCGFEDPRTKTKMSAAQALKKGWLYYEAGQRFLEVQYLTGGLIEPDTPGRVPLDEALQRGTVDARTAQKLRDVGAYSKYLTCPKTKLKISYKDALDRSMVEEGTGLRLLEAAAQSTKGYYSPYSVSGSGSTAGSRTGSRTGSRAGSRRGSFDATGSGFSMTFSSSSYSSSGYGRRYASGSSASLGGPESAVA
UniProt P06733: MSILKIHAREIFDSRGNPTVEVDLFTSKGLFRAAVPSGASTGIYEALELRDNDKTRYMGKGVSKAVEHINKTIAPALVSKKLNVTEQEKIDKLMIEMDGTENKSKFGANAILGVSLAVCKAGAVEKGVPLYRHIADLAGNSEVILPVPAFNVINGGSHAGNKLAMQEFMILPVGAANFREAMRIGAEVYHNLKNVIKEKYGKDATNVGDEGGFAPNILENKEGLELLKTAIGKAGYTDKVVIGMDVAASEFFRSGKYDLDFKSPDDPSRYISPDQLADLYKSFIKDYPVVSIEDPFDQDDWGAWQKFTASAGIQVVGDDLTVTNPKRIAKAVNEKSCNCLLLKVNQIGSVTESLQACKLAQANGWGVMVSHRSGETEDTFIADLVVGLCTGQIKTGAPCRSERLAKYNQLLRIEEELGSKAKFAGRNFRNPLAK
UniProt P14618: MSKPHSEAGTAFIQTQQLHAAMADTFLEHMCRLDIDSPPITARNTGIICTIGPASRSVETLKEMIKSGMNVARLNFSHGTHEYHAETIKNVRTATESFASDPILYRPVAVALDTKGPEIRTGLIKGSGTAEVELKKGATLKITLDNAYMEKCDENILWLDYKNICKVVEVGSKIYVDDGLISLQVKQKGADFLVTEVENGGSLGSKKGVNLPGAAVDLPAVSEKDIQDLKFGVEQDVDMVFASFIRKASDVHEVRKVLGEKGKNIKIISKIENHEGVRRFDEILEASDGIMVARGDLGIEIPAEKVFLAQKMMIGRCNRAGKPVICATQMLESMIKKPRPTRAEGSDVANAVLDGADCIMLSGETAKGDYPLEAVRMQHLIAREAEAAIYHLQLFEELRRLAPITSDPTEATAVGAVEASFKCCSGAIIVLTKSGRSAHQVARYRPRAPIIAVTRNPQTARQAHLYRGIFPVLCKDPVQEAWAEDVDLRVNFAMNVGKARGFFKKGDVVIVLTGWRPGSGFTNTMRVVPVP

T1: ESM1 overexpressed in ovarian cancer cells (Flag-tagged) (human) (UniProt Q9NQ30)
T1 sequence: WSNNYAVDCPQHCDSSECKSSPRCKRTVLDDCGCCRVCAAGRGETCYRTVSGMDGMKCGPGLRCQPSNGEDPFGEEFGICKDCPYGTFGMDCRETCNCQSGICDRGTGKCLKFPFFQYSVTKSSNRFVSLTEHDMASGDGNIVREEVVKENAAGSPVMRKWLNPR


What was measured:
[1] = molecular target: T1, ESM1 overexpressed in ovarian cancer cells (Flag-tagged) (human); experiment: affinity purification with mass spectrometry; ESM1-interacting complexes isolated from CAOV3 and OV90 cells with anti-Flag monoclonal antibodies and paramagnetic beads; SDS-PAGE, LC-MS/MS (QExactive)
[2] = molecular target: T1, ESM1 overexpressed in ovarian cancer cells (Flag-tagged) (human); experiment: as above; remark: listed apart in the source

Molecule	binding [1]	binding [2]
HSPD1 (from UniProt P10809 27-573)	binds	–
PLEC (from UniProt Q15149 1-4684)	binds	–
ENO1 (from UniProt P06733 1-434) (enzyme)	binds	–

Second part, the molecule after the results:

binding [1]	binding [2]	Molecule
binds	–	MYH9 (from UniProt P35579 1-1960)
binds	–	Pyruvate kinase isozyme M2 (PKM2), endogenous (from UniProt P14618 1-531) (enzyme)
–	binds	Ubiquitin-like modifier-activating enzyme 2 (UBA2), endogenous (enzyme, UniProt Q9UBT2 1-640) MALSRGLPRELAEAVAGGRVLVVGAGGIGCELLKNLVLTGFSHIDLIDLDTIDVSNLNRQFLFQKKHVGRSKAQVAKESVLQFYPKANIVAYHDSIMNPDYNVEFFRQFILVMNALDNRAARNHVNRMCLAADVPLIESGTAGYLGQVTTIKKGVTECYECHPKPTQRTFPGCTIRNTPSEPIHCIVWAKYLFNQLFGEEDADQEVSPDRADPEAAWEPTEAEARARASNEDGDIKRISTKEWAKSTGYDPVKLFTKLFKDDIRYLLTMDKLWRKRKPPVPLDWAEVQSQGEETNASDQQNEPQLGLKDQQVLDVKSYARLFSKSIETLRVHLAEKGDGAELIWDKDDPSAMDFVTSAANLRMHIFSMNMKSRFDIKSMAGNIIPAIATTNAVIAGLIVLEGLKILSGKIDQCRTIFLNKQPNPRKKLLVPCALDPPNPNCYVCASKPEVTVRLNVHKVTVLTLQDKIVKEKFAMVAPDVQIEDGKGTILISSEEGETEANNHKKLSEFGIRNGSRLQADDFLQDYTLLINILHSEDLGKDVEFEVVGDAPEKVGPKQAEDAAKSITNGSDDGAQPSTSTAQEQDDVLIVDSDEEDSSNNADVSEEERSRKRKLDEKENLSAKRSRIEQKEELDDVIALD

Like-named read-outs stand apart in the source and are kept apart here. Results are given in words; binding and its absence hold for the method and conditions named. In cells and extracts the contact can be indirect. Here binding means that the protein was enriched with, or labelled near, the bait; the list need not be complete. Where a sequence is shown, tags or fusion partners need not be part of it.
